Results: paper PMC10480782
Results are given in words; binding and its absence hold for the method and conditions named. In cells and extracts the contact can be indirect. Some results given as binding are weak or reduced against the parent protein; the word gives no strength. For part of these data: Where a sequence is shown, tags or fusion partners need not be part of it.

Sequences of proteins named here, by UniProt entry; tags and fusion partners are left off.
UniProt P52294: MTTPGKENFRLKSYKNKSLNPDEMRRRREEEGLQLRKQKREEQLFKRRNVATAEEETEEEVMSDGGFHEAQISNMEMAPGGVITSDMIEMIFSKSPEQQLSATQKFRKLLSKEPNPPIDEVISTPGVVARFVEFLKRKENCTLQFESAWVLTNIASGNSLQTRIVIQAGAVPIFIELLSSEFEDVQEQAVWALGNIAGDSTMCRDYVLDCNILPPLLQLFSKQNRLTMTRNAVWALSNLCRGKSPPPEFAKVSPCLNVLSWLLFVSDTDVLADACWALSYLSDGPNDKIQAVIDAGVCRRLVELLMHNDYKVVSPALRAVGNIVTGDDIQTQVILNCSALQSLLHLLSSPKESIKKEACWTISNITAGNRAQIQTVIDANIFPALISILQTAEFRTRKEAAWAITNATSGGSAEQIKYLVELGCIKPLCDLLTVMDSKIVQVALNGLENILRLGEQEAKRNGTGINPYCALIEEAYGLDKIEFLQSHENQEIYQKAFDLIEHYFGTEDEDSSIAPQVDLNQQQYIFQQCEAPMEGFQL

T1: Flag-TBK1 (tank-binding kinase 1) (UniProt Q9UHD2)
T1 sequence: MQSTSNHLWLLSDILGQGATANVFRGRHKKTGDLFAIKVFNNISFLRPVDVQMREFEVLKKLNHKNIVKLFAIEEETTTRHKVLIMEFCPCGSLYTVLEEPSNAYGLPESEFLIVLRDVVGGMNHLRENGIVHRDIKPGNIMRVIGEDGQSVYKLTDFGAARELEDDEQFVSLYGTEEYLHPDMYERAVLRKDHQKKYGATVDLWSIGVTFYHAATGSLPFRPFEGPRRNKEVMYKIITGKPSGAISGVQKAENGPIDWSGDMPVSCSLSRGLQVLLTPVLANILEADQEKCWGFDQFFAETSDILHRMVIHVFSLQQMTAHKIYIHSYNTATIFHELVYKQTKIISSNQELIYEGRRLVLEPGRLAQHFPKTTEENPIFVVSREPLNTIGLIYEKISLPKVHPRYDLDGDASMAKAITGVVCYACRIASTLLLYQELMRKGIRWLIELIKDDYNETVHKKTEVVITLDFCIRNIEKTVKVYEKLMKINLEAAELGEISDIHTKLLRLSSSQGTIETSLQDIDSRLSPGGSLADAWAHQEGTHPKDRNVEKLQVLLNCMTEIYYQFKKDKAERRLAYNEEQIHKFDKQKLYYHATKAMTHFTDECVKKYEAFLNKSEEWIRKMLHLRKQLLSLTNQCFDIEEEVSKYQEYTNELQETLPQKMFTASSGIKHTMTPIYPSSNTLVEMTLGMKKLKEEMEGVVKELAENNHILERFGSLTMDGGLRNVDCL


Columns and labels:
Test in all cases: co-IP
[1] = target: Flag-KPNA1 (karyopherin α1) (UniProt P52294)
[2] = target: Flag-tagged NuTF2 (UniProt P61970)
[3] = target: T1, Flag-TBK1 (tank-binding kinase 1)

Molecule	binding [1]	binding [2]	binding [3]
HA-Nsp15 (SARS-CoV-2 Nsp15) (from UniProt P0DTD1)	binds	no binding	–
EGFP-IRF3 (human IRF3 in pEGFP-C1) (protein, UniProt Q14653 1-427) MGTPKPRILPWLVSQLDLGQLEGVAWVNKSRTRFRIPWKHGLRQDAQQEDFGIFQAWAEATGAYVPGRDKPDLPTWKRNFRSALNRKEGLRLAEDRSKDPHDPHKIYEFVNSGVGDFSQPDTSPDTNGGGSTSDTQEDILDELLGNMVLAPLPDPGPPSLAVAPEPCPQPLRSPSLDNPTPFPNLGPSENPLKRLLVPGEEWEFEVTAFYRGRQVFQQTISCPEGLRLVGSEVGDRTLPGWPVTLPDPGMSLTDRGVMSYVRHVLSCLGGGLALWRAGQWLWAQRLGHCHTYWAVSEELLPNSGHGPDGEVPKDKEGGVFDLGPFIVDLITFTEGSGRSPRYALWFCVGESWPQDQPWTKRLVMVKVVPTCLRALVEMARVGGASSLENTVDLHISNSHPLSLTSDQYKAYLQDLVEGMDFQGPGES	–	–	binds
